Test results: paper PMC9820583
No constants are given. Whether binding was seen depends on the method and setting. Binding seen in cells or lysates may run through a third protein. A result given as binding can be weak or reduced; the word gives no strength. Tags and fused reporters may be left off the sequences shown.

Molecular target: T1, Flag-tagged CDKL5 (107 kDa splice variant) (UniProt O76039)
T1 sequence: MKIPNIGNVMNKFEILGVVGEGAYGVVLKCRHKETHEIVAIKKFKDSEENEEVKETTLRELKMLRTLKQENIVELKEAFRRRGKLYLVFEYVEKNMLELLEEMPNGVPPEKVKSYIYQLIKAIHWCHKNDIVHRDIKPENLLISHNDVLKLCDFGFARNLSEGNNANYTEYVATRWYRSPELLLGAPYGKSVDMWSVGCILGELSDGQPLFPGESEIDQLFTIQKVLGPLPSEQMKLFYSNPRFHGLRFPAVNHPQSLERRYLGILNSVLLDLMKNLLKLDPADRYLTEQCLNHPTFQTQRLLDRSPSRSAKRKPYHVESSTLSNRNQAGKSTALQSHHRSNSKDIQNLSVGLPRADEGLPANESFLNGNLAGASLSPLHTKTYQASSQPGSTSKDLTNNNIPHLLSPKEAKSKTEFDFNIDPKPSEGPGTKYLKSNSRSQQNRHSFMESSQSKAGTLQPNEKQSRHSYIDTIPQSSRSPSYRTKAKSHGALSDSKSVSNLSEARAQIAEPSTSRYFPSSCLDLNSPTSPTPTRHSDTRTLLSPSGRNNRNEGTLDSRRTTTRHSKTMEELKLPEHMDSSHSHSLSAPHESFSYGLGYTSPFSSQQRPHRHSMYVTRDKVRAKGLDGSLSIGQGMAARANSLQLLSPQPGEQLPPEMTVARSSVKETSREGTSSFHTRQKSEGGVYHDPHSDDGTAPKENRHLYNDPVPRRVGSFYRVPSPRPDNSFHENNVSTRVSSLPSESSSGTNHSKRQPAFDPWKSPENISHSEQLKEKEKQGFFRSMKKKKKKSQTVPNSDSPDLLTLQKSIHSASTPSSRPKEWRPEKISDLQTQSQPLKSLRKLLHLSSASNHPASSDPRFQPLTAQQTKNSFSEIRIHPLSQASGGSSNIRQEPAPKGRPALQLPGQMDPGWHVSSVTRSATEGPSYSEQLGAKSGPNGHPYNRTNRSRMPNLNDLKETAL
Test: co-IP; CDKL5 immunoprecipitated with 1 µg monoclonal anti-CDKL5 from 400 µg of HEK293T cells expressing Flag-CDKL5 and Myc-CB2; lysis buffer 50 mM Tris-HCl pH 7.4, 150 mM NaCl, 1 mM EDTA, 1 mM EGTA, 1% Triton X-100; overnight at 4 °C; protein-G agarose; western blotting with anti-CDKL5 and anti-CB

binding: binds
Substance: Myc-tagged collybistin CB2 isoform
